The test system of this data set is U937 cells. Nature of the data set: Dye dilution / mean fluorescence intensity monitoring of labeled cells by flow cytometry. Format: cell-based. In general terms: Flow cytometry measures light scatter and fluorescence of single cells or particles in a stream.
Setting [1] is: 488 nm excitation for PKH26, 405 nm for F305B, 633 nm for F308B.

The source of these data is US9597416B2, “Fluorescent membrane intercalating probes and methods for their use” (PHANOS TECHNOLOGIES, INC., priority 2005, dated 2017).

Consider `CCCCCCCCCCCCCCCCCCCCCC[n+]1c(/C=C2\Sc3ccccc3N2CCCCCCCCCCCCCC)sc2ccccc21.[I-]` [Compound F305B], for which the “signal:noise ratio at T0 relative to PKH26” value under setting [1] is reported as “lower”.
As for `CCCCCCCCCCCCCCCCCCCCCC[N+]1=C(/C=C/C=C/C=C/C=C2/N(CCCCCCCCCCCCCC)c3ccc([N+](=O)[O-])cc3C2(C)C)C(C)(C)c2ccccc21.[I-]` [Compound F319B], the “signal:noise ratio at T0 relative to PKH26” value (FACSAria, 785 nm excitation for F319B, 488 nm for PKH26) was “approx 5 ×”.
For `CCCCCCCCCCCCCCCCCCCCCC[N+]1=C(/C=C/C=C/C=C2/N(CCCCCCCCCCCCCC)c3ccc([N+](=O)[O-])cc3C2(C)C)C(C)(C)c2ccccc21.[I-]` [Compound F308B], under setting [1], the “signal:noise ratio at T0 relative to PKH26” value is reported as “greater”.
